PubChem BioAssay AID1159600 | NIAID – 2016

Screen: 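Which TLR pathway genes support TNF promoter activation by R848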 (primary screen)
Cells: human THP-1 TNF reporter clone B5, made macrophage-like with PMA
Knock-down reagent: single siRNA against human genes
Time to read-out: 4 h ligand stimulation, assayed 48 to 72 h after siRNA transfection
Conditions: R848 (TLR7/8 agonist) for 4 hours before lysis; dose not given
Read-out: 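TNF promoter firefly to renilla luciferase ratio after 4 h R848, scaled per plate by median and MAD, robust z-score against negative controls, mean of replicates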
Reading the numbers: TNF reporter z-score: higher = stronger TNF promoter reporter signal after R848
Call rule: 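siRNAs graded by distance of mean z-score from zero in steps of 1, 1.5, 2 and 2.5; active calls sit at roughly -1.5 or below, or 1.5 or above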
Calls: active = strong change in TNF reporter (up or down); inactive = little change
The whole screen tested 756 reagents; shown is a part drawn at random. 134 of all reagents (18%) were called active. 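Active includes both reduced and increased reporter signal, though most active siRNAs reduce it; R848 dose unknown.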 The numbers tell different reagents against one gene apart. Not given: the amount of reagent.

| Gene | siRNA no. | TNF reporter z-score | Outcome |
| --- | --- | --- | --- |
| MAPK9 | 1 | -0.665 | inactive |
| MAPK9 | 2 | -1.19 | inactive |
| MAPK9 | 3 | -0.051 | inactive |
| MAPK9 | 4 | -0.639 | inactive |
| MAPK9 | 5 | -1.21 | inactive |
| MAPK9 | 6 | 0.591 | inactive |
| TNF | 1 | 0.0424 | inactive |
| TNF | 2 | -1.03 | inactive |
| TNF | 3 | -0.804 | inactive |
| TNF | 4 | -1.16 | inactive |
| TNF | 5 | -0.811 | inactive |
| TNF | 6 | -2.17 | active |
| AKT1 | 1 | 0.778 | inactive |
| AKT1 | 2 | -0.325 | inactive |
| AKT1 | 3 | -1.43 | inactive |
| AKT1 | 4 | -0.566 | inactive |
| AKT1 | 5 | 0.256 | inactive |
| AKT1 | 6 | -2.2 | active |
| CXCL9 | 1 | -1.65 | active |
| CXCL9 | 2 | -0.582 | inactive |
| CXCL9 | 3 | 0.709 | inactive |
| CXCL9 | 4 | -2.35 | active |
| CXCL9 | 5 | 1.34 | inactive |
| CXCL9 | 6 | -1.33 | inactive |
| PIK3CB | 1 | -1.07 | inactive |
| PIK3CB | 2 | -0.474 | inactive |
| PIK3CB | 3 | -0.44 | inactive |
| PIK3CB | 4 | -0.014 | inactive |
| PIK3CB | 5 | 1.59 | active |
| PIK3CB | 6 | 0.161 | inactive |
| NFKB2 | 1 | -0.0609 | inactive |
| NFKB2 | 2 | -0.322 | inactive |
| NFKB2 | 3 | 0.0476 | inactive |
| NFKB2 | 4 | -0.506 | inactive |
| NFKB2 | 5 | -1.6 | active |
| NFKB2 | 6 | 0.348 | inactive |
| IRF7 | 1 | 0.164 | inactive |
| IRF7 | 2 | -1.33 | inactive |
| IRF7 | 3 | -0.531 | inactive |
| IRF7 | 4 | -1.58 | active |
| IRF7 | 5 | -1.28 | inactive |
| IRF7 | 6 | -1.39 | inactive |
| FOS | 1 | 0.51 | inactive |
| FOS | 2 | 0.283 | inactive |
| FOS | 3 | 0.0217 | inactive |
| FOS | 4 | -0.345 | inactive |
| FOS | 5 | 0.192 | inactive |
| FOS | 6 | 1.49 | inactive |
| SP1 | 1 | -2.22 | active |
| SP1 | 2 | -1.15 | inactive |
| SP1 | 3 | 2.29 | active |
| SP1 | 4 | 2.26 | active |
| SP1 | 5 | 1.67 | active |
| SP1 | 6 | -1.08 | inactive |
| CD180 | 1 | -0.682 | inactive |
| CD180 | 2 | -0.704 | inactive |
| CD180 | 3 | -2.53 | active |
| CD180 | 4 | -1.08 | inactive |
| CD180 | 5 | -0.759 | inactive |
| CD180 | 6 | -0.26 | inactive |
| TBK1 | 1 | -0.811 | inactive |
| TBK1 | 2 | -0.805 | inactive |
| TBK1 | 3 | 0.0932 | inactive |
| TBK1 | 4 | 1.25 | inactive |
| TBK1 | 5 | 0.485 | inactive |
| TBK1 | 6 | 0.284 | inactive |

Next part (6 carried over from the part before).
| Gene | siRNA no. | TNF reporter z-score | Outcome |
| --- | --- | --- | --- |
| TBK1 | 1 | -0.811 | inactive |
| TBK1 | 2 | -0.805 | inactive |
| TBK1 | 3 | 0.0932 | inactive |
| TBK1 | 4 | 1.25 | inactive |
| TBK1 | 5 | 0.485 | inactive |
| TBK1 | 6 | 0.284 | inactive |
| IFNB1 | 1 | -1.05 | inactive |
| IFNB1 | 2 | -1.66 | active |
| IFNB1 | 3 | 0.286 | inactive |
| IFNB1 | 4 | -0.655 | inactive |
| IFNB1 | 5 | -1.17 | inactive |
| IFNB1 | 6 | -2.02 | active |
| ETS1 | 1 | -1.51 | active |
| ETS1 | 2 | -0.406 | inactive |
| ETS1 | 3 | -0.334 | inactive |
| ETS1 | 4 | -0.278 | inactive |
| ETS1 | 5 | 1.89 | active |
| ETS1 | 6 | -1.12 | inactive |
| ATF2 | 1 | -2.01 | active |
| ATF2 | 2 | -0.305 | inactive |
| ATF2 | 3 | -0.0201 | inactive |
| ATF2 | 4 | 0.879 | inactive |
| ATF2 | 5 | 0.917 | inactive |
| ATF2 | 6 | -1.76 | active |
| PIK3R5 | 1 | -0.427 | inactive |
| PIK3R5 | 2 | -0.0411 | inactive |
| PIK3R5 | 3 | 0.737 | inactive |
| PIK3R5 | 4 | -0.0483 | inactive |
| PIK3R5 | 5 | -0.194 | inactive |
| PIK3R5 | 6 | 0.406 | inactive |
| MAPK1 | 1 | -0.231 | inactive |
| MAPK1 | 2 | -0.529 | inactive |
| MAPK1 | 3 | 1.4 | inactive |
| MAPK1 | 4 | 0.242 | inactive |
| MAPK1 | 5 | -0.643 | inactive |
| MAPK1 | 6 | -0.256 | inactive |
| MAPK10 | 1 | -1.93 | active |
| MAPK10 | 2 | 1.12 | inactive |
| MAPK10 | 3 | -0.282 | inactive |
| MAPK10 | 4 | -0.455 | inactive |
| MAPK10 | 5 | 0.603 | inactive |
| MAPK10 | 6 | -0.39 | inactive |
| IKBKE | 1 | -2.43 | active |
| IKBKE | 2 | -0.325 | inactive |
| IKBKE | 3 | 1.3 | inactive |
| IKBKE | 4 | -1.07 | inactive |
| IKBKE | 5 | -1.22 | inactive |
| IKBKE | 6 | -2.45 | active |
| MYD88 | 1 | -4.48 | active |
| MYD88 | 2 | -5 | active |
| MYD88 | 3 | -4.54 | active |
| MYD88 | 4 | -2.12 | active |
| MYD88 | 5 | 0.471 | inactive |
| MYD88 | 6 | 0.591 | inactive |
